Measured values reported in US12350317B2, “Immunotherapy for the treatment and prevention of inflammatory bowel disease” (THE UAB RESEARCH FOUNDATION, priority 2019, dated 2025).
At least one structure is not confirmed: it was looked up by name or label, or the drawing left a doubt.

Key:
[1] = tested on: CBir1Tg CD4+CD44- naive T cells; assay: Naive CBir1Tg CD4+ T cell glucose uptake, viability, proliferation and Treg induction in vitro; assay type: cell-based, mouse; conditions: 100 nM rapamycin
Procedure: CBir1Tg CD4^+CD44-naïve T cells were isolated from the spleen and co-cultured with irradiated antigen-presenting-cells (APCs) isolated from C57BL/6 mice, in the presence of 1 μg/ml of MEP1 with (blue) or without (red) 100 nM rapamycin. Phosphorylation of S6K in CBir1Tg CD4^+ T cells was examined after 20 hrs of stimulation. […] OVA p323-339 stimulation was used as a negative control (grey). Representative flow plots are shown in (A-D, and I), and statistics of 3 replicated experiments are shown in (E-H, and J). For in vitro and in vivo suppression assays, naïve CD4+ cells were isolated from CBir1Tg·Foxp3gfp spleen and cultured with MEP1 and rapamycin for 6 days for Treg induction. Then live CD4^+CD25^+GFP^+ Treg cells were sorted with flow cytometry as CBir1Tg iTreg Rapa. Live CD4^+CD25^+GFP^+ cells freshly isolated from naïve CBir1Tg·Foxp3gfp spleen were used as control (CBir1Tg tTreg) for suppression assay in vitro. CFSE labeled responder CD4+CD44-(Tn) cells were isolated from congenic CBir1Tg or C57BL/6 mouse and co-cultured with indicated ratios of CBir1Tg Treg cells in the presence of 1 μg/ml MEP1 or anti-mouse-CD3 and APCs for 3.5 days. Representative graphs of antigen-specific and bystander suppression are shown in (K and M), respectively, and accumulated percentage of suppression are shown in (L and N). […]

[2] = tested on: CD4+ T cell mediated colitis; assay: CBir1Tg CD4+ T cell transfer colitis in Rag-/- mice; assay type: in vivo, mouse
[3] = tested on: donor CBir1Tg CD4+ TM cells; assay: Ablation of pre-existing antigen-specific CD4+ TM cells in C57BL/6 mice upon MEP1 challenge; assay type: in vivo, mouse
[4] = rapamycin with peripheral MEP1 activation, vs other groups

SMILES: CO[C@H]1C[C@@H]2CC[C@@H](C)[C@@](O)(O2)C(=O)C(=O)N2CCCC[C@H]2C(=O)O[C@H]([C@H](C)C[C@@H]2CC[C@@H](O)[C@H](OC)C2)CC(=O)[C@H](C)/C=C(\C)[C@@H](O)[C@@H](OC)C(=O)[C@H](C)C[C@H](C)/C=C/C=C/C=C/1C [rapamycin]
- Glucose metabolism (uptake of 2-NBDG) ([1]; MEP1, 90 hrs co-culture): significantly compromised capacity for glucose metabolism
- Cell death ([1]; in presence of cognate antigen MEP1, 90 hrs): dramatic CBir1Tg naïve CD4+ T cell death
- Development of colitis (histology, disease severity score) ([2]; rapamycin combined with peripheral MEP1 activation, day 18): fully prevented
- CBir1Tg CD4 cells in the colon [2, 4]: significantly fewer CBir1Tg CD4 cells
- Effector Th1 and Th17 cells in the colon [2, 4]: fewer pathologic effector Th1 and Th17 cells
- Development of colitis (histology) ([2]; rapamycin without peripheral MEP1, day 18): not able to prevent colitis development
- Serum anti-CBir1 flagellin IgG ([3]; after challenge): decreased level
- Differentiation of antigen-specific Tfh cells upon challenge ([3]; day 42 spleen): inhibited the differentiation of antigen-specific Tfh cells
- Treg population in remaining CBir1Tg CD4+ cells ([3]; day 42 spleen): significant induction of Treg population
- Expansion of CBir1Tg CD4+ cells after antigen challenge (absolute numbers in spleen) ([3]; rapamycin 1 μg/g/day, metformin 150 μg/g/day i.p. 5 days after MEP1 challenge days 28 and 35, day 42): Moderate inhibition
